These results are taken from PMC5509742.

No constants are given. Whether binding was seen depends on the method and setting. Some entries that bind do so weakly or less than the wild type.

The target in this assay is catalytic domain of PhaC from Chromobacterium sp. USM2 (residues 175-567) (Chromobacterium sp. USM2) (UniProt E1APK1). The experiment in a line: SEC; Superdex 200 (10/30), 30 µM protein in the absence or presence of 0.5 mM DL-3HB-CoA, 10 mM Tris-HCl (pH 8.0), 100 mM NaCl, 3 mM β-ME, 4 °C; monomer to dimer; both purified. In general terms: In gel filtration, larger molecules generally elute earlier.

“catalytic domain of PhaC from Chromobacterium sp. USM2 (residues 175-567) (from UniProt E1APK1 175-567) (domain or fragment)”: the binding entry is listed as “binds weakly”.
